Laboratory results reported in patent publication US20250304973A1, “HIGH-AFFINITY THROMBIN APTAMERS AND METHODS OF USE” (Ayass Bioscience LLC, priority 2024, published 2025).
Some entries share one result that the patent states for a list of compounds.

Target: T1, Factor II activity (Homo sapiens, UniProt P00734)
T1 construct: tissue Rockland Immunochemicals, Inc R214-0050; host or cells: human citrated plasma / whole blood
Test: Factor II activity assay in human citrated plasma (ACLTOP analyzer)
Assay type: biochemical
Details: 2 uM, 2 h, normalized against untreated control
Description: Plasma was prepared by centrifugation for 10 min at 2000×g. In vitro activity assays were performed on ACLTOP analyzer manufactured by Instrumentation Laboratory, which is a type of coagulation analyzer commonly used in clinical laboratories to measure clotting times and assess coagulation parameters. The ACLTOP analyzer is designed to perform a wide range of coagulation tests, including Factor II activity, prothrombin time (PT), activated partial thromboplastin time (APTT), fibrinogen, and other related assays. ACLTOP analyzer uses HemosIL reagents developed by Instrumentation Laboratory company (Bedford, MA, USA) to perform coagulation tests.
Factor II activity was measured using human plasma immunodepleted of Factor II for the quantitative determination of Factor II activity in citrated plasma based on the prothrombin time (PT) assay, for which an ACLTOP coagulation analyzer manufactured by Instrumentation Laboratory (Bedford, MA, USA) was used. […]
Modified aptamers chemically crosslinked with TAG, PEG, and cholesterol entities at the 3′ end, were purchased from IDT (Integrated DNA Technologies, Coralville, IA, USA). The impact of modified AYA1809002 and AYA1809004 aptamers on Factor II activity, PT, and APTT was evaluated using the same protocol as was used for the unmodified aptamers. […]

Substance | reduction in Factor II activity
AYA1809002: ssDNA thrombin aptamer GCGGTGTTGCTGGGGTTGGGAGGTTGGAGGAAGCAATCGC | more than 85%
AYA1809004: ssDNA thrombin aptamer TCGTCAAGGTACGGTTGGGGGGGTGGGTGTTGACGTTGAA (DNA, backbone not given here) | more than 85%
